Source: PMC10585743
Results are given in words; binding and its absence hold for the method and conditions named. Binding seen in cells or lysates may run through a third protein. Some results given as binding are weak or reduced against the parent protein; the word gives no strength.

Protein sequences, listed by entry. Tags and fused reporters are not part of them. Residues count along the entry.
UniProt O60486, residues 35-1568: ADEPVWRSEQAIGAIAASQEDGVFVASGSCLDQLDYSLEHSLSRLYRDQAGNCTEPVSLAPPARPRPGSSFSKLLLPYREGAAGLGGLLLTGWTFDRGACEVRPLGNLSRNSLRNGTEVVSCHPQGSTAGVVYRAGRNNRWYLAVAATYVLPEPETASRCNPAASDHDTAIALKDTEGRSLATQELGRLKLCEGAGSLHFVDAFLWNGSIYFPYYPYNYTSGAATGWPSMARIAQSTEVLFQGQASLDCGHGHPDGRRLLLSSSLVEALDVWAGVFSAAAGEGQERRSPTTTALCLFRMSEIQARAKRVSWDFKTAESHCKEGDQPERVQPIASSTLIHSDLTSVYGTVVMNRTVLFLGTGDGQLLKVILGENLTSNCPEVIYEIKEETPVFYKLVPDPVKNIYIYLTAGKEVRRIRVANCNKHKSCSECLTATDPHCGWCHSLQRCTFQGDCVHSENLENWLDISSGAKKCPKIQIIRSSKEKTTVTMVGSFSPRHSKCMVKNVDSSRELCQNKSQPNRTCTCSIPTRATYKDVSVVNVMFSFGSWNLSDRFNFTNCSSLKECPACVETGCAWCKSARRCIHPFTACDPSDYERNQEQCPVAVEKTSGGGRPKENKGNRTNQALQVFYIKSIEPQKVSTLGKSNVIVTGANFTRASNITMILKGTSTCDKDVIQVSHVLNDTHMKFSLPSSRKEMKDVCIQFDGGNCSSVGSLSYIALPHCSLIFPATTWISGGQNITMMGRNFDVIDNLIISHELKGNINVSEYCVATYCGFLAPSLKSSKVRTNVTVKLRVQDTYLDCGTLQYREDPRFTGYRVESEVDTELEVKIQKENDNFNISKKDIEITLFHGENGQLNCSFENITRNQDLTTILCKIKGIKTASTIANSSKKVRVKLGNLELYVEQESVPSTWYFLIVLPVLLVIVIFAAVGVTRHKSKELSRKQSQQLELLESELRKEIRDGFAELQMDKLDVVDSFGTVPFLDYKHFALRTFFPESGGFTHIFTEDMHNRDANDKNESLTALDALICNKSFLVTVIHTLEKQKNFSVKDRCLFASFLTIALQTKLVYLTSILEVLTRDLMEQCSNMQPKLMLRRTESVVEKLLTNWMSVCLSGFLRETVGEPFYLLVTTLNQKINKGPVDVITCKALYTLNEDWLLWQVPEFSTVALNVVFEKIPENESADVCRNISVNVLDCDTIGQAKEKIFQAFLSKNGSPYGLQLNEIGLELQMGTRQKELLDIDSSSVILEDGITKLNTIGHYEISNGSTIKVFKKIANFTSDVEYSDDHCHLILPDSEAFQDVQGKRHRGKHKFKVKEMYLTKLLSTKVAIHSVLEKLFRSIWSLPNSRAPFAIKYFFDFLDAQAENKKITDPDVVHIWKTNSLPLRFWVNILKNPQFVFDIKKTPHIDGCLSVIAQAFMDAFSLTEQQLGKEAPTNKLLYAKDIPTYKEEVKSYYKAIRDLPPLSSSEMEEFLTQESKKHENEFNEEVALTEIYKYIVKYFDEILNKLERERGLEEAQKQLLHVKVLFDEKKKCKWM
UniProt P11021, residues 19-654: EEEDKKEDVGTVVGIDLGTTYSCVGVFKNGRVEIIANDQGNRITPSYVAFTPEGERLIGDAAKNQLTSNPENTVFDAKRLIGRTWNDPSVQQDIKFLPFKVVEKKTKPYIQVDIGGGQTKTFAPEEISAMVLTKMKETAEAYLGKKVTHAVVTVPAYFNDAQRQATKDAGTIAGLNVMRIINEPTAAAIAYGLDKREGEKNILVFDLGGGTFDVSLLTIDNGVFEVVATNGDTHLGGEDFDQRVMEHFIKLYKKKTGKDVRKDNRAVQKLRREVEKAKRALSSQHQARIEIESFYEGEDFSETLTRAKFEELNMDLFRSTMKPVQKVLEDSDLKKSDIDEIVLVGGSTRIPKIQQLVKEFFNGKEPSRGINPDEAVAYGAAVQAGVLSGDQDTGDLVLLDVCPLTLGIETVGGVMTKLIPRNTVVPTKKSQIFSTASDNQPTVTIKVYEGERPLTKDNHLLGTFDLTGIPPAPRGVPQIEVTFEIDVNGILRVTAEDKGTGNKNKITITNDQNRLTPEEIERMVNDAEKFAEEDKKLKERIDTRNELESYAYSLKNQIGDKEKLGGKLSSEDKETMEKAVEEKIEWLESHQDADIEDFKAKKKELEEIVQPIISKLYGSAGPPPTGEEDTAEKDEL

Molecular target: Plexin C1 (PLXNC1) (human (endogenous in CHON-001)) (UniProt O60486)
Assay: co-IP; lysates of IL-1β-treated CHON-001 cells; 2 μg anti-PLXNC1 or anti-GRP78 antibody or goat anti-mouse IgG, protein A/G beads (Co-IP kit); PLXNC1 and GRP78 detected by western blotting

binding: binds
Substance: glucose-regulating protein 78 (GRP78) (from UniProt P11021 19-654)
